In paper doi:10.1101/2024.05.08.593122 (bioRxiv, 2024):
These are yes or no findings as the source states them, for the method shown. For part of these data: In cells and extracts the contact can be indirect. Some results given as binding are weak or reduced against the parent protein; the word gives no strength. Sequences can lack the tags named with a protein. Blank lines part the entries; values can stand above or below the binder they belong to.

Experiments:
[1] = biological target: N-terminally HA tagged Tgl2 (S. cerevisiae) (UniProt P54857); assay: native gel or EMSA
[2] = biological target: T1, N-terminally FLAG tagged Tgl2 (S. cerevisiae, UniProt P54857 1-326); assay: co-IP
T1 sequence (looked up): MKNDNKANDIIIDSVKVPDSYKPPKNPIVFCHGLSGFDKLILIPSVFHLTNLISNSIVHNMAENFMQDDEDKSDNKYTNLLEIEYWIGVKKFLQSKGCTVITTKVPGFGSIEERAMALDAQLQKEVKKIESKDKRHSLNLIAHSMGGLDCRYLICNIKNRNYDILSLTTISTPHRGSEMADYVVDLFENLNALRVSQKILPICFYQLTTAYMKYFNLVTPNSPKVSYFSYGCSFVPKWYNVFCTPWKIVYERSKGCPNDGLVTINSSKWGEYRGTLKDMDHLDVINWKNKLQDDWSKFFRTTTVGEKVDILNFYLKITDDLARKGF

[3] = biological target: HA-Tgl2 C232A (S. cerevisiae) (UniProt P54857); assay: native gel or EMSA
[4] = biological target: HA-Tgl2 C232A (S. cerevisiae) (UniProt P54857); assay: non-reducing SDS-PAGE with immunodecoration
[5] = biological target: HA-Tgl2 C256A (S. cerevisiae) (UniProt P54857); assay: native gel or EMSA
[6] = biological target: HA-Tgl2 C256A (S. cerevisiae) (UniProt P54857); assay: non-reducing SDS-PAGE with immunodecoration
[7] = biological target: HA-Tgl2 S144A (S. cerevisiae) (UniProt P54857); assay: native gel or EMSA
[8] = biological target: HA-Tgl2 S144A (S. cerevisiae) (UniProt P54857); assay: non-reducing SDS-PAGE with immunodecoration
[9] = biological target: HA-Tgl2 D259A (S. cerevisiae) (UniProt P54857); assay: native gel or EMSA
[10] = biological target: C-terminally tagged Tgl2 (S. cerevisiae) (UniProt P54857); assay: native gel or EMSA
[11] = biological target: HA-Tgl2 C31A (S. cerevisiae) (UniProt P54857); assay: native gel or EMSA
[12] = biological target: HA-Tgl2 C31A (S. cerevisiae) (UniProt P54857); assay: non-reducing SDS-PAGE with immunodecoration

B2: HA-Tgl2 C232A (protein, UniProt P54857 1-326)
chain: MKNDNKANDIIIDSVKVPDSYKPPKNPIVFCHGLSGFDKLILIPSVFHLTNLISNSIVHNMAENFMQDDEDKSDNKYTNLLEIEYWIGVKKFLQSKGCTVITTKVPGFGSIEERAMALDAQLQKEVKKIESKDKRHSLNLIAHSMGGLDCRYLICNIKNRNYDILSLTTISTPHRGSEMADYVVDLFENLNALRVSQKILPICFYQLTTAYMKYFNLVTPNSPKVSYFSYGASFVPKWYNVFCTPWKIVYERSKGCPNDGLVTINSSKWGEYRGTLKDMDHLDVINWKNKLQDDWSKFFRTTTVGEKVDILNFYLKITDDLARKGF
binding [3]: binds
binding [4]: binds

B3: HA-Tgl2 C256A (protein, UniProt P54857 1-326)
chain: MKNDNKANDIIIDSVKVPDSYKPPKNPIVFCHGLSGFDKLILIPSVFHLTNLISNSIVHNMAENFMQDDEDKSDNKYTNLLEIEYWIGVKKFLQSKGCTVITTKVPGFGSIEERAMALDAQLQKEVKKIESKDKRHSLNLIAHSMGGLDCRYLICNIKNRNYDILSLTTISTPHRGSEMADYVVDLFENLNALRVSQKILPICFYQLTTAYMKYFNLVTPNSPKVSYFSYGCSFVPKWYNVFCTPWKIVYERSKGAPNDGLVTINSSKWGEYRGTLKDMDHLDVINWKNKLQDDWSKFFRTTTVGEKVDILNFYLKITDDLARKGF
binding [5]: binds
binding [6]: binds

B6: C-terminally tagged Tgl2 (protein, UniProt P54857 1-326)
chain: MKNDNKANDIIIDSVKVPDSYKPPKNPIVFCHGLSGFDKLILIPSVFHLTNLISNSIVHNMAENFMQDDEDKSDNKYTNLLEIEYWIGVKKFLQSKGCTVITTKVPGFGSIEERAMALDAQLQKEVKKIESKDKRHSLNLIAHSMGGLDCRYLICNIKNRNYDILSLTTISTPHRGSEMADYVVDLFENLNALRVSQKILPICFYQLTTAYMKYFNLVTPNSPKVSYFSYGCSFVPKWYNVFCTPWKIVYERSKGCPNDGLVTINSSKWGEYRGTLKDMDHLDVINWKNKLQDDWSKFFRTTTVGEKVDILNFYLKITDDLARKGF
binding [10]: binds

B7: HA-Tgl2 C31A (protein, UniProt P54857 1-326)
chain: MKNDNKANDIIIDSVKVPDSYKPPKNPIVFAHGLSGFDKLILIPSVFHLTNLISNSIVHNMAENFMQDDEDKSDNKYTNLLEIEYWIGVKKFLQSKGCTVITTKVPGFGSIEERAMALDAQLQKEVKKIESKDKRHSLNLIAHSMGGLDCRYLICNIKNRNYDILSLTTISTPHRGSEMADYVVDLFENLNALRVSQKILPICFYQLTTAYMKYFNLVTPNSPKVSYFSYGCSFVPKWYNVFCTPWKIVYERSKGCPNDGLVTINSSKWGEYRGTLKDMDHLDVINWKNKLQDDWSKFFRTTTVGEKVDILNFYLKITDDLARKGF
binding [11]: binds
binding [12]: binds

The next lines start with the values.

binding [1]: binds
binding [2]: binds
B1: N-terminally HA tagged Tgl2 (natural protein, S. cerevisiae, UniProt P54857 1-326, looked up)
chain: MKNDNKANDIIIDSVKVPDSYKPPKNPIVFCHGLSGFDKLILIPSVFHLTNLISNSIVHNMAENFMQDDEDKSDNKYTNLLEIEYWIGVKKFLQSKGCTVITTKVPGFGSIEERAMALDAQLQKEVKKIESKDKRHSLNLIAHSMGGLDCRYLICNIKNRNYDILSLTTISTPHRGSEMADYVVDLFENLNALRVSQKILPICFYQLTTAYMKYFNLVTPNSPKVSYFSYGCSFVPKWYNVFCTPWKIVYERSKGCPNDGLVTINSSKWGEYRGTLKDMDHLDVINWKNKLQDDWSKFFRTTTVGEKVDILNFYLKITDDLARKGF

binding [7]: binds
binding [8]: binds
B4: HA-Tgl2 S144A (protein, UniProt P54857 1-326)
chain: MKNDNKANDIIIDSVKVPDSYKPPKNPIVFCHGLSGFDKLILIPSVFHLTNLISNSIVHNMAENFMQDDEDKSDNKYTNLLEIEYWIGVKKFLQSKGCTVITTKVPGFGSIEERAMALDAQLQKEVKKIESKDKRHSLNLIAHAMGGLDCRYLICNIKNRNYDILSLTTISTPHRGSEMADYVVDLFENLNALRVSQKILPICFYQLTTAYMKYFNLVTPNSPKVSYFSYGCSFVPKWYNVFCTPWKIVYERSKGCPNDGLVTINSSKWGEYRGTLKDMDHLDVINWKNKLQDDWSKFFRTTTVGEKVDILNFYLKITDDLARKGF

binding [9]: binds
B5: HA-Tgl2 D259A (protein, UniProt P54857 1-326)
chain: MKNDNKANDIIIDSVKVPDSYKPPKNPIVFCHGLSGFDKLILIPSVFHLTNLISNSIVHNMAENFMQDDEDKSDNKYTNLLEIEYWIGVKKFLQSKGCTVITTKVPGFGSIEERAMALDAQLQKEVKKIESKDKRHSLNLIAHSMGGLDCRYLICNIKNRNYDILSLTTISTPHRGSEMADYVVDLFENLNALRVSQKILPICFYQLTTAYMKYFNLVTPNSPKVSYFSYGCSFVPKWYNVFCTPWKIVYERSKGCPNAGLVTINSSKWGEYRGTLKDMDHLDVINWKNKLQDDWSKFFRTTTVGEKVDILNFYLKITDDLARKGF
